PubChem BioAssay AID1259424 – University of Nebraska Medical Center – 2018
Purpose: 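Find knockdowns that reproduce the expression shifts seen after KSR1 loss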 (primary screen). Cell system: human HCT116 colon cancer cells. Knock-down reagent: siRNA pool against human genes, 50 nM. Measured: 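Log2 levels of six mRNAs (branched-DNA multiplex), adjusted by two reference genes and the non-targeting median, then scored against the average KSR1 knockdown pattern as Pearson r and euclidean distance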. Direction: mean correlation with KSR1 profile and KSR1 correlation: higher = expression change more like KSR1 knockdown; mean distance from KSR1 profile: higher = expression change less like KSR1 knockdown.
Shown is a random part of about 14,000 reagents tested. 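Higher correlation or smaller distance means closer resemblance to KSR1 loss; control wells, including KSR1 knockdowns, recur on many plates.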 Not stated in the record: the time to read-out.

no.	Gene	mean correlation with KSR1 profile	mean distance from KSR1 profile	KSR1 correlation, replicate 1	KSR1 correlation, replicate 2	KSR1 correlation, replicate 3
1	CLIP3 (CAP-Gly domain containing linker protein 3)	-0.889	2.26	-0.885	-0.896	-0.827
2	AMDHD2 (amidohydrolase domain containing 2)	0.346	3.09	0.0518	0.339	0.689
3	ALDOA (aldolase, fructose-bisphosphate A)	-0.316	3.36	0.205	0.152	-0.343
4	GGNBP2 (gametogenetin binding protein 2)	-0.263	3.45	-0.156	-0.163	-0.342
5	MUC1 (mucin 1, cell surface associated)	-0.214	4.37	0.00722	-0.239	-0.257
6	COQ4 (coenzyme Q4)	-0.322	2.34	-0.273	-0.322	-0.107
7	MBD3L1 (methyl-CpG binding domain protein 3 like 1)	0.0654	1.38	0.0514	-0.137	-0.0634
8	KCNMB3	0.239	1.14	-0.789	0.0968	0.0609
9	GBP3 (guanylate binding protein 3)	-0.577	2.54	-0.435	-0.533	-0.683
10	OR12D3 (olfactory receptor family 12 subfamily D member 3)	0.622	2.26	0.701	0.597	0.627
11	MYORG (myogenesis regulating glycosidase)	-0.693	3.58	-0.701	-0.543	-0.448
12	LRRC2 (leucine rich repeat containing 2)	0.122	2.57	0.18	0.161	0.118
13	IL5RA (interleukin 5 receptor subunit alpha)	-0.495	1.3	-0.516	-0.396	-0.397
14	FYTTD1 (forty-two-three domain containing 1)	0.896	1.06	0.892	0.762	0.898
15	POU6F2 (POU class 6 homeobox 2)	-0.694	2.53	-0.598	-0.693	-0.615
16	CUX1 (cut like homeobox 1)	0.000135	1.93	0.0763	0.0243	-0.0306
17	CARS2 (cysteinyl-tRNA synthetase 2, mitochondrial)	0.952	0.53	0.96	0.941	0.857
18	MAP3K5 (mitogen-activated protein kinase kinase kinase 5)	0.102	1.82	0.221	0.195	-0.0933
19	ATP2B2 (ATPase plasma membrane Ca2+ transporting 2)	0.223	3.05	0.286	0.2	0.0686
20	RMP24 (ribonuclease MRP subunit p24)	-0.0829	3.6	-0.183	-0.0787	-0.0741
21	HINT1 (histidine triad nucleotide binding protein 1)	0.0716	1.7	0.237	-0.2	-0.161
22	UBIAD1 (UbiA prenyltransferase domain containing 1)	-0.173	2.92	-0.12	-0.35	-0.489
23	CAMK1G (calcium/calmodulin dependent protein kinase IG)	-0.323	2.2	-0.463	-0.816	0.0431
24	PANK4 (pantothenate kinase 4 (inactive))	0.656	2.18	0.667	0.716	0.58
25	CALCRL (calcitonin receptor like receptor)	0.291	1.66	0.186	0.503	-0.0193
26	ITIH3 (inter-alpha-trypsin inhibitor heavy chain 3)	0.256	1.4	-0.185	0.277	0.425
27	GET3 (guided entry of tail-anchored proteins factor 3, ATPase)	0.292	1.48	0.322	0.359	0.308
28	B3GAT1 (beta-1,3-glucuronyltransferase 1)	0.0384	1.67	0.0779	-0.462	0.0134
29	CASQ1 (calsequestrin 1)	-0.471	3.31	-0.00874	-0.47	-0.597
30	TRIM7 (tripartite motif containing 7)	0.0794	2.36	0.00542	0.0307	-0.021
31	RIT2 (Ras like without CAAX 2)	0.499	0.971	0.0389	0.714	0.727
32	TCF12 (transcription factor 12)	0.0566	2.28	0.268	0.155	0.0751
33	EFCAB14 (EF-hand calcium binding domain 14)	0.505	1.22	0.498	0.745	0.328
34	PIN1P1	0.313	2.54	0.0793	0.389	0.452
35	RIDA (reactive intermediate imine deaminase A)	0.0268	1.54	0.0465	-0.115	0.151
36	SESN1 (sestrin 1)	0.243	3.21	0.169	0.181	0.301
37	POLB (DNA polymerase beta)	-0.529	2.81	-0.549	-0.628	-0.487
38	NOP16 (NOP16 nucleolar protein)	-0.527	2.75	-0.633	-0.214	-0.144
39	HSPB2 (heat shock protein family B (small) member 2)	0.174	2.79	0.0563	0.386	0.155
40	USP34 (ubiquitin specific peptidase 34)	-0.791	1.64	-0.552	-0.4	-0.559
41	GFRA4 (GDNF family receptor alpha 4)	0.151	3.13	0.113	0.176	0.0622
42	AUP1 (AUP1 lipid droplet regulating VLDL assembly factor)	0.103	2.18	0.175	0.0549	-0.248
43	LINC00467 (long independently transcribed non-coding RNA 467)	0.267	2.19	0.0797	0.153	0.213
44	CCL23 (C-C motif chemokine ligand 23)	0.415	1.93	0.455	0.466	0.322
45	FUCA1 (alpha-L-fucosidase 1)	-0.58	2.96	-0.525	-0.589	-0.525
46	TCF7L1 (transcription factor 7 like 1)	0.117	3.83	0.258	0.505	0.0244
47	TBX22 (T-box transcription factor 22)	0.648	1.01	0.445	0.691	0.565
48	PTPRG (protein tyrosine phosphatase receptor type G)	0.441	1.31	0.694	0.421	0.126
49	NPTXR (neuronal pentraxin receptor)	0.386	2.65	0.287	0.254	0.43
50	NLRP1 (NLR family pyrin domain containing 1)	-0.692	2.31	-0.658	-0.757	-0.64

6 of these entries, set out differently:
| Gene | mean correlation with KSR1 profile | mean distance from KSR1 profile | KSR1 correlation, replicate 1 | KSR1 correlation, replicate 2 | KSR1 correlation, replicate 3 |
| --- | --- | --- | --- | --- | --- |
| FUCA1 (alpha-L-fucosidase 1) | -0.58 | 2.96 | -0.525 | -0.589 | -0.525 |
| TCF7L1 (transcription factor 7 like 1) | 0.117 | 3.83 | 0.258 | 0.505 | 0.0244 |
| TBX22 (T-box transcription factor 22) | 0.648 | 1.01 | 0.445 | 0.691 | 0.565 |
| PTPRG (protein tyrosine phosphatase receptor type G) | 0.441 | 1.31 | 0.694 | 0.421 | 0.126 |
| NPTXR (neuronal pentraxin receptor) | 0.386 | 2.65 | 0.287 | 0.254 | 0.43 |
| NLRP1 (NLR family pyrin domain containing 1) | -0.692 | 2.31 | -0.658 | -0.757 | -0.64 |
